Measured values from patent publication US20160017348A1.
Results are given in words; binding and its absence hold for the method and conditions named. Binding seen in cells or lysates may run through a third protein. Here binding means that the protein was enriched with, or labelled near, the bait; the list need not be complete. Sequences can lack the tags named with a protein.

Target: T1, SUVH2 (Arabidopsis thaliana) (UniProt O22781)
T1 sequence: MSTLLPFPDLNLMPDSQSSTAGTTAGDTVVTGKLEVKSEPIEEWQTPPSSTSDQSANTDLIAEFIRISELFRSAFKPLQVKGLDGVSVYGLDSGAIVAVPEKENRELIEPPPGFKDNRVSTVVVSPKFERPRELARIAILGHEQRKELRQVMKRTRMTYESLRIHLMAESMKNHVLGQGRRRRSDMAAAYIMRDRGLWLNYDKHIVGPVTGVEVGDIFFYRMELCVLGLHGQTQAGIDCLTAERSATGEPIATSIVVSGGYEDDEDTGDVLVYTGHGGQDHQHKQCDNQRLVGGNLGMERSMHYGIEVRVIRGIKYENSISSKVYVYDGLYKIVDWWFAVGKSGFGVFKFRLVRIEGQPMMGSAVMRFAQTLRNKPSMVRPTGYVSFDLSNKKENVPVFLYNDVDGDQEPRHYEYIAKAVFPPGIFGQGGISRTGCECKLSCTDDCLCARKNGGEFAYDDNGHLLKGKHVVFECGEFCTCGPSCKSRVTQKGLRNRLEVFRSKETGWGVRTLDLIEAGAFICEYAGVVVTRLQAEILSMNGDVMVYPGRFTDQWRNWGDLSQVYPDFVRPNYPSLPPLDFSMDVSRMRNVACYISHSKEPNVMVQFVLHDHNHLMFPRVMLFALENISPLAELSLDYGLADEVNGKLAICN
Test: immunoprecipitation of epitope-tagged DRD1 and mass spectrometry

binding: binds
B1: DRD1-Flag (protein, not shown: small tags and cut ends)
chain: MGFVYIVMTGYYKNVHKRKQNQVDDGPEAKRVKSSAKVIDYSNPFAVSNMLEALDSGKFGSVSKELEEIADMRMDLVKRSIWLYPSLAYTVFEAEKTMDNQQVVEGVINLDDDDDDDTDVEKKALCVVPSSSEIVLLDSDDEDNERQRPMYQFQSTLVQHQKNQGDVTPLIPQCSFEEVDLGRGKEMPSAIKAIVEGQTSRGKVLPIENGVVNEKGVYVGVEEDDSDNESEAADEDLGNIWNEMALSIECSKDVARETSHKEKADVVEDCEHSFILKDDMGYVCRVCGVIEKSILEIIDVQFTKAKRNTRTYASETRTKRFGESDNELKFSEEGLMIGGLAAHPTHAAEMKPHQIEGFQFLCSNLVADDPGGCIMAHAPGSGKTFMIISFMQSFLAKYPQAKPLVVLPKGILPTWKKEFVRWQVEDIPLLDFYSAKAENRAQQLSILKQWMEKKSILFLGYQQFSTIVCDDTTDSLSCQEILLKVPSILILDEGHTPRNEDTNLLQSLAQVQTPRKVVLSGTLYQNHVKEVFNILNLVRPKFLKLDTSKSAVKRILAYTPCDVRGRLTGSNSDMASMFNETVEHTLQKSEDFTVKIKVIQDLREMTKKVLHYYKGDFLDELPGLADFTVVLNLSPKQLNEVKKLRREKRKFKVSAVGSAIYLHPKLKVFSDKSDDVSDTTMDEMVEKLDLNEGVKAKFFLNLINLCDSAGEKLLVFSQYLIPLKFLERLAALAKGWKLGKEVFVLTGNTSSEQREWSMETFNSSPDAKIFFGSIKACGEGISLVGASRILILDVPLNPSVTRQAIGRAFRPGQKKMVHAYRLIAGSSPEEEDHNTCFKKEVISKMWFEWNEYCGYQNFEVETIDVDEAGDTFLESPALREDIRVLYKR
